PubChem BioAssay AID743454 – Peter MacCallum Cancer Centre | 2014
Purpose: 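Knock-downs lowering viability or raising caspase 3/7 activity in vorinostat-treated resistant cells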 (primary screen). System: human HCT116-VR colon cancer cells, selected for vorinostat resistance. Reagents: siRNA pool against human genes, 40 nM siRNA pool. Duration: vorinostat for 24 h, read-out about 72 h after transfection. Conditions: vorinostat at 2.5 µM final. Read-out: 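Cell viability by CellTiter-Fluor and caspase 3/7 activity by luminescence, each scaled to mock wells per plate, duplicates averaged, then robust z-scored over all plates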. Reading the numbers: viability robust z-score: higher = more viable cells than screen typical; caspase robust z-score: higher = more caspase 3/7 activity than screen typical. Rule for the call: 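a knock-down is a hit when classed RV1 or RV2 for lowered viability, or CA1 or CA2 for caspase activation; those lethal without drug were dropped; hits were retested singly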.
The deposit covers about 18,000 reagents; shown is a part drawn at random. In the full data, 450 (2.5%) were called active. 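Single biological run; no consistent viability z cut-off exists, so the class columns, not z-scores, define the calls.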

Depletion of SLA2 (GeneID 84174) resulted in: viability hit class no change; caspase hit class no change; viability robust z-score 0.75; caspase robust z-score 2.45; inactive.
Silencing of SLC10A6 (GeneID 345274) gave: viability hit class no change; caspase hit class no change; viability robust z-score 0.78; caspase robust z-score -0.53; inactive.
After knock-down of CRTC2 (GeneID 200186) the results were viability hit class no change; caspase hit class no change; viability robust z-score -0.82; caspase robust z-score 1.86; inactive.
Against RTN4RL1 (GeneID 146760) the deposit lists viability hit class no change; caspase hit class no change; viability robust z-score -1.99; caspase robust z-score 1.93; inactive.
With knock-down of RBP2 (GeneID 5948) the results were viability hit class no change; caspase hit class no change; viability robust z-score 0.81; caspase robust z-score 1.04; inactive.
After knock-down of TLN2 (GeneID 83660), the record shows viability hit class no change; caspase hit class no change; viability robust z-score 0.4; caspase robust z-score -0.25; inactive.
SLC25A1 (GeneID 6576) gave viability hit class no change; caspase hit class no change; viability robust z-score 0.97; caspase robust z-score 2.77; inactive.
For WT1 (GeneID 7490) the deposit lists viability hit class no change; caspase hit class no change; viability robust z-score 0.9; caspase robust z-score 0.12; inactive.
Silencing of OR6C70 (GeneID 390327) gave: viability hit class no change; caspase hit class no change; viability robust z-score -0.11; caspase robust z-score -0.53; inactive.
For SPAG9 (GeneID 9043), the values are viability hit class no change; caspase hit class no change; viability robust z-score 0.14; caspase robust z-score -0.12; inactive.
For MYO18B (GeneID 84700) the deposit lists viability hit class no change; caspase hit class no change; viability robust z-score 0.32; caspase robust z-score -0.22; inactive.
ZBTB10 (GeneID 65986) scored viability hit class no change; caspase hit class no change; viability robust z-score 1.06; caspase robust z-score -0.4; inactive.

Quoted from the entries so far, 2 entries:
SPAG9 (GeneID 9043): viability hit class = no change; caspase hit class = no change; viability robust z-score = 0.14; caspase robust z-score = -0.12; Call = inactive
MYO18B (GeneID 84700): viability hit class = no change; caspase hit class = no change; viability robust z-score = 0.32; caspase robust z-score = -0.22; Call = inactive
